The other results are listed elsewhere or left out.
These targets were tested with C[C@H](C1=CC=C(C=C1)C(=O)NC2=C3C=CNC3=NC=C2)N (assay: log2 fold change, soluble protein after heating vs DMSO (PISA); higher = thermal stabilisation; K562 lysate, 10 uM; active = over 0.2 and 3.5 SD of the protein, either way, in both replicates (recomputed)).
How it was run: (§1)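 K562 pellets were dounce-homogenised in PBS pH 7.4 with 1 mM MgCl2, and the crude extract at 1 mg/mL protein was treated with 10 μM compound for 30 min. Aliquots were heated for 3 min across 48°C-58°C, pooled, and brought to 0.5% NP-40 at 4°C; soluble protein was the supernatant after 21,000xg for 90 min. Soluble protein was quantified by TMTpro 16plex LC-MS/MS with channel sums equalised, and reported as log2 fold change in thermal stability against DMSO controls, with values from duplicates.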

By UniProt entry, the sequences of proteins in these tests, tags left out. Where a name states a change or a piece, a line headed by the entry shows the natural chain unless it says otherwise.
UniProt Q8N720: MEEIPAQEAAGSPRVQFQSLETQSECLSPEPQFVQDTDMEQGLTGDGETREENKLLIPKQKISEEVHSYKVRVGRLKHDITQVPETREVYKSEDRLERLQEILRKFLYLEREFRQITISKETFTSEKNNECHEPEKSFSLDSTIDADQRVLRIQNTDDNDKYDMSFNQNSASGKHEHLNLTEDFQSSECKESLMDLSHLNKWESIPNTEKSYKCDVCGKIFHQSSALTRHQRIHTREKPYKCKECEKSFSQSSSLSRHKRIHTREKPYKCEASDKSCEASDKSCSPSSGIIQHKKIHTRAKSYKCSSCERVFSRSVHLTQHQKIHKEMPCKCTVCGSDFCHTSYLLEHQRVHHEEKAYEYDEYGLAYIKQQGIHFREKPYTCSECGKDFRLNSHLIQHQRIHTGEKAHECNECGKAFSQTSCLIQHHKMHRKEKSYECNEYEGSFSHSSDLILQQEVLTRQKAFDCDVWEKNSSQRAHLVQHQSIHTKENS
UniProt Q9HBT8: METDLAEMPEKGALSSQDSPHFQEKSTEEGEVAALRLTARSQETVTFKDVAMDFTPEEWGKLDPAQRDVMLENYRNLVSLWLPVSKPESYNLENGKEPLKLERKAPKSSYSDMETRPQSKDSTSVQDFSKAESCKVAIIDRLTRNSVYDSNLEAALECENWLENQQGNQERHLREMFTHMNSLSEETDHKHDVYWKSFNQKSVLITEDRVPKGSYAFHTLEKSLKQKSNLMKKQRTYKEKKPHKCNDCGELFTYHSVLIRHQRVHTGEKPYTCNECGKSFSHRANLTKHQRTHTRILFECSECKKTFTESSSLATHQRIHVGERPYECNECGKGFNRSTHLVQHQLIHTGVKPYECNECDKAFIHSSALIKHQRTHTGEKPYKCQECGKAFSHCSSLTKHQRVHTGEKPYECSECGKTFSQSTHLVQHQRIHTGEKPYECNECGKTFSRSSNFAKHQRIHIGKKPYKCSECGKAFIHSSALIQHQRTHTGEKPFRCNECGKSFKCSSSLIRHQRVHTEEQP
UniProt Q9BS34: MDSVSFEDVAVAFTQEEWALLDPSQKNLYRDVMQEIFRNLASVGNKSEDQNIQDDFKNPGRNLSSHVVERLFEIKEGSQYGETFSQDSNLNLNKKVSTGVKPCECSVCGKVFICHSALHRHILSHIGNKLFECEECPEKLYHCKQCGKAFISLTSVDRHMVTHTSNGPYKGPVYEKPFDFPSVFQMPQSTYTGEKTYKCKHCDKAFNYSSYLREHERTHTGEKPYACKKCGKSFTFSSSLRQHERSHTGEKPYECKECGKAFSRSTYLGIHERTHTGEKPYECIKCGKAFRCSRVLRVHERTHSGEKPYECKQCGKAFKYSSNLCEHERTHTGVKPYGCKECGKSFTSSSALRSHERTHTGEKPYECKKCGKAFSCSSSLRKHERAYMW
UniProt Q6ZN06: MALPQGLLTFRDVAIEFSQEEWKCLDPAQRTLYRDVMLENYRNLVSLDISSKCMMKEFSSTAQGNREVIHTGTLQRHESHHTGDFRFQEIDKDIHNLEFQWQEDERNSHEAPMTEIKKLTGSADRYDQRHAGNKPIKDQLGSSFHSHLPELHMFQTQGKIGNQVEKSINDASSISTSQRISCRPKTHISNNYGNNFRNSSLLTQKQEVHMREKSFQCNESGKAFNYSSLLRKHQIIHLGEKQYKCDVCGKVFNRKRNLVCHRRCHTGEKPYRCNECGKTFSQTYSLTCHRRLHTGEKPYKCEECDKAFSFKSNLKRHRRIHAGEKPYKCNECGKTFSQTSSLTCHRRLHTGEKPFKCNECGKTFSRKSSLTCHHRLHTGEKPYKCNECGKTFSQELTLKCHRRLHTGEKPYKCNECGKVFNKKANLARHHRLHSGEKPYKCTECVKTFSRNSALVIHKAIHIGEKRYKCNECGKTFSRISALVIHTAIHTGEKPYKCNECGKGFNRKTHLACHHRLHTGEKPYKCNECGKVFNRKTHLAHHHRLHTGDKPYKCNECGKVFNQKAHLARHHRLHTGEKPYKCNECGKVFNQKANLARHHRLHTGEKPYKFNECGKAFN
UniProt Q9P1U0, whole entry, looked up: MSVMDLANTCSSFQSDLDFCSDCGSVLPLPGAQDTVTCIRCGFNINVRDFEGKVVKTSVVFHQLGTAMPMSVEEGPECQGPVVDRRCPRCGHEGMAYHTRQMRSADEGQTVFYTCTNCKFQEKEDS
UniProt Q9Y2X9: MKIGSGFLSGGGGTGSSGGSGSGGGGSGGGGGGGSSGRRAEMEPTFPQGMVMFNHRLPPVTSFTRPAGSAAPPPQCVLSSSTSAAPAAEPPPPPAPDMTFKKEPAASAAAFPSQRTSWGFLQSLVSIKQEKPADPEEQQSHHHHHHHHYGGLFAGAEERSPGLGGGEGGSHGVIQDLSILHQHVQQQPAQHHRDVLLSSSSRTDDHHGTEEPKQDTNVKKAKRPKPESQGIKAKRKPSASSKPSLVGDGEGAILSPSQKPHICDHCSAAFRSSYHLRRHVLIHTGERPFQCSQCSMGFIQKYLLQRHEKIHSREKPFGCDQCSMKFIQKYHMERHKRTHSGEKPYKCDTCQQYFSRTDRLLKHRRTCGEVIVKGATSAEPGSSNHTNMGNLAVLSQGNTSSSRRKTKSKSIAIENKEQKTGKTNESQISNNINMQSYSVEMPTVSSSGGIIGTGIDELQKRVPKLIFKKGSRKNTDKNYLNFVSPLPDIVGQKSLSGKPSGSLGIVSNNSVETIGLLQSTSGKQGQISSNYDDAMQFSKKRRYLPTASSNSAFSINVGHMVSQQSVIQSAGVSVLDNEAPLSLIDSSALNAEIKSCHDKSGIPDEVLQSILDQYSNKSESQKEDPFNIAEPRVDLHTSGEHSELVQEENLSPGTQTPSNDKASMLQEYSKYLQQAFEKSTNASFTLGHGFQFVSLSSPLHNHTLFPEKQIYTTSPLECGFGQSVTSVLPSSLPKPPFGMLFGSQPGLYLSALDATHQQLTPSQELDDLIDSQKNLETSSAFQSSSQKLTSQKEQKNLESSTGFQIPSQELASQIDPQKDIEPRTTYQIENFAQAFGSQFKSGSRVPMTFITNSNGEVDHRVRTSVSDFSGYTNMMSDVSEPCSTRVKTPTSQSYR
UniProt Q8N4W9: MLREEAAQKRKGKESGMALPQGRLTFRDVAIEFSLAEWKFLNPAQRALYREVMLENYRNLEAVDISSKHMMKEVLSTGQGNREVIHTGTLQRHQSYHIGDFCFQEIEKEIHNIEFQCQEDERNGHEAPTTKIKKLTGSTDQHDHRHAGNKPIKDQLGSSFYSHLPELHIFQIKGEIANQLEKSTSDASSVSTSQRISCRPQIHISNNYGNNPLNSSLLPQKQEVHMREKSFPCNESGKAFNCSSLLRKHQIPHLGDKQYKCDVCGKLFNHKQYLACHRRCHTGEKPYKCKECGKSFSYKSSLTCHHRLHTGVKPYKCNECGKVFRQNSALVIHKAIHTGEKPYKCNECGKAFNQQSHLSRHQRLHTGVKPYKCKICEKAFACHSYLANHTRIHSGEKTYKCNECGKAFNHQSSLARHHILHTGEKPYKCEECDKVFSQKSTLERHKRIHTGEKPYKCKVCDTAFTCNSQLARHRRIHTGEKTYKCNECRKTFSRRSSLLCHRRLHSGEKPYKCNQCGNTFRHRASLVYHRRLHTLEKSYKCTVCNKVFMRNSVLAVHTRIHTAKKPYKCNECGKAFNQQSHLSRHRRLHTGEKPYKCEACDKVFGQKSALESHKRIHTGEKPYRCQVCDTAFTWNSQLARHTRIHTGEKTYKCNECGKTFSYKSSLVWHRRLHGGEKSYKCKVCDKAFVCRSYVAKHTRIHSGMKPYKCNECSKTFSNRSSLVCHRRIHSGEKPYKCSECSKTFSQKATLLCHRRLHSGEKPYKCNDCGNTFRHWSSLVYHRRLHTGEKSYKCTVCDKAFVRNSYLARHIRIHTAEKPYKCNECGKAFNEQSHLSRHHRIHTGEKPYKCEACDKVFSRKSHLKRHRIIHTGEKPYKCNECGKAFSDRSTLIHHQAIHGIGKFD
UniProt P59817: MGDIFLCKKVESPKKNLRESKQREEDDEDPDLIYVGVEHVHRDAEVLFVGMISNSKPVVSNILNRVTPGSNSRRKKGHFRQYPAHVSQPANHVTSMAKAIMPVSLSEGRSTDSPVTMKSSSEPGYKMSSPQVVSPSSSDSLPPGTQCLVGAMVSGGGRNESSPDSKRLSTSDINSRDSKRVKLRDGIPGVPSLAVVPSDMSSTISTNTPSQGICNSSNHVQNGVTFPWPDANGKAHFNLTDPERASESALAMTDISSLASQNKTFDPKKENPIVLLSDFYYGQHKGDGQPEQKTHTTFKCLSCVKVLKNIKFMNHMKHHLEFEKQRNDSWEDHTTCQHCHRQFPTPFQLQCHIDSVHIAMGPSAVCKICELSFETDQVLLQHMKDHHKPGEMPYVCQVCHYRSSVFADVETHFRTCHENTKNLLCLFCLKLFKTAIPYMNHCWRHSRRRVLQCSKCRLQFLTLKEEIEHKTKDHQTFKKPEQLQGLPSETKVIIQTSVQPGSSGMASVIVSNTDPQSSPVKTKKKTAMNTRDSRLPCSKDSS
UniProt Q9BU19: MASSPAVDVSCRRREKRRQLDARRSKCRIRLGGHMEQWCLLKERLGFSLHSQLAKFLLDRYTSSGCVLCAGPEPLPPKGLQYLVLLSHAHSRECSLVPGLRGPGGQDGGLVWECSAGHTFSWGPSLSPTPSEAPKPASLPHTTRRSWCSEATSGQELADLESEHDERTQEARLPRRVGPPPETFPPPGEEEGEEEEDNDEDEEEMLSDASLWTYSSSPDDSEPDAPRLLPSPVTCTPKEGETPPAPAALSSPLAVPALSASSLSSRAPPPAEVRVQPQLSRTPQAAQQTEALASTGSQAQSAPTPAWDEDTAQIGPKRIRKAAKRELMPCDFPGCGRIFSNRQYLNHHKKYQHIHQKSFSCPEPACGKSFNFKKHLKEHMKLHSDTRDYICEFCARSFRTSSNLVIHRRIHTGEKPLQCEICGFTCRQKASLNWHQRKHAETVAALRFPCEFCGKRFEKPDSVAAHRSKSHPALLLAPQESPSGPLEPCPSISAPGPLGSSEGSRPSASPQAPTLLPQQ
UniProt Q15072: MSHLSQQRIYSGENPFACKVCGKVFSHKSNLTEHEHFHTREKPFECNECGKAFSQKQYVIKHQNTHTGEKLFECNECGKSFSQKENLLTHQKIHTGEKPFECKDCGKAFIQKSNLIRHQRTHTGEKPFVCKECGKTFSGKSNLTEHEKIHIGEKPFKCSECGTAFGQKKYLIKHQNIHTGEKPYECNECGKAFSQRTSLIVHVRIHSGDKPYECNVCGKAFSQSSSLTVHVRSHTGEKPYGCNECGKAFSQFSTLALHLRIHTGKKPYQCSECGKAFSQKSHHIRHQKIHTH
UniProt Q99676: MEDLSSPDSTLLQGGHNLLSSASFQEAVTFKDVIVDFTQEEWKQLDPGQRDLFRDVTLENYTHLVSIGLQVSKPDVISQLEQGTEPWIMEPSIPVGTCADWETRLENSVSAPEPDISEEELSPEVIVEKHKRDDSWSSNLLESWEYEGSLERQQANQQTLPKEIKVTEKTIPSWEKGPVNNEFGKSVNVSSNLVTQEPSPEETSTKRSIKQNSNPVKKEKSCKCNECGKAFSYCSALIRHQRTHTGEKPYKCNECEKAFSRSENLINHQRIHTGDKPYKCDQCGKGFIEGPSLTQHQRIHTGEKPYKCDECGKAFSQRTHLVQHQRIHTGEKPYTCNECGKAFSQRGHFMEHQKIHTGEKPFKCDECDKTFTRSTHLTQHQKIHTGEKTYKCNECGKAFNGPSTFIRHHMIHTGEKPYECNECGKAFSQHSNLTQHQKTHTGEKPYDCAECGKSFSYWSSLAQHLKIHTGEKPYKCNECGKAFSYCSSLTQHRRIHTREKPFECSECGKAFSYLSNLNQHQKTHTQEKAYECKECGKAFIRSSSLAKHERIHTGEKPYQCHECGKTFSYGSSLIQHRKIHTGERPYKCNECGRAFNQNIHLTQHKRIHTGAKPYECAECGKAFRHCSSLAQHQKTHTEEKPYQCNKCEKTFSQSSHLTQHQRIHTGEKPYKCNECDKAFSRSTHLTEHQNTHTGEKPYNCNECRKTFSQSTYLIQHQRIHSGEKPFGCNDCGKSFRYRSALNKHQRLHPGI
UniProt Q6NSZ9: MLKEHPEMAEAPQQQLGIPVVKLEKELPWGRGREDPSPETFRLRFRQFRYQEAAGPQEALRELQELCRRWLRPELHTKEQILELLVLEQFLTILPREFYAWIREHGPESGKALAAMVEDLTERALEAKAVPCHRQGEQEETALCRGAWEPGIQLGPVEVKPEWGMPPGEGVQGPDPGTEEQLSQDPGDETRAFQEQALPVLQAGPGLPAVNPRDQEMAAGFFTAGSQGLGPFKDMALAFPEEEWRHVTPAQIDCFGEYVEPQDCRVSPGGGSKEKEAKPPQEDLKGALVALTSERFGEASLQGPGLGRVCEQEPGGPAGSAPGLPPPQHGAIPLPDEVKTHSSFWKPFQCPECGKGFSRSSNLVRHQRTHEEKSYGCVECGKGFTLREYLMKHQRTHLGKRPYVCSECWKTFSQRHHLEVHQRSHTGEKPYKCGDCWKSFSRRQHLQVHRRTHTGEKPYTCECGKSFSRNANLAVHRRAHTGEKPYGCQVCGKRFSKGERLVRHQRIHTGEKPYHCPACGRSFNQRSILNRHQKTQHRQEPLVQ

log2 fold change, inactive:
ZSWIM7 (UniProt Q19AV6) -0.002
ZNF655 isoform 2 (UniProt Q8N720) -0.09
ZNF526 (UniProt Q8TF50) -0.124
ZNF286A (UniProt Q9HBT8) -0.004
ZNF670 (UniProt Q9BS34) -0.03
ZSCAN21 (UniProt Q9Y5A6) -0.131
ZNF813 (UniProt Q6ZN06) 0.413
ZNRD1 (UniProt Q9P1U0) -0.008

These targets were tested with C[C@H](Nc1ncnc2nc[nH]c12)c1cc2cccc(Cl)c2c(=O)n1-c1ccccc1 [duvelisib] in the same assay as above.
How it was run: as §1

log2 fold change, inactive:
ZNF281 (UniProt Q9Y2X9) 0.029
ZNF808 (UniProt Q8N4W9) 0.092
ZNF280A (UniProt P59817) 0.083
ZSWIM7 (UniProt Q19AV6) 0.018
ZNF692 isoform 5 (UniProt Q9BU19) 0.116
ZNF526 (UniProt Q8TF50) 0.171
ZNF562 (UniProt Q6V9R5) -0.004
ZNF146 (UniProt Q15072) -0.018
ZNF184 (UniProt Q99676) 0.048
ZNF813 (UniProt Q6ZN06) 0.008
ZSCAN25 (UniProt Q6NSZ9) -0.105
ZUP1 (UniProt Q96AP4) -0.025
